# According to the supplement of paper PMC5662767:
# Where a name gives a salt, the structure may show the parent alone. The list shows a part of the results. Plates or batches differ in their baseline, so values are only roughly comparable.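 Smoothened with circularly permuted GFP in its cytoplasmic tail is carried by a clonal Drosophila S2 line; fluorescence appears when Hh-driven phosphorylation opens an inhibitory loop. Per-cell signal, read by flow cytometry, was scaled to Hh-stimulated untreated cells. Hits were consistent fluorescence-shifting groups of inhibitors sharing pathway targets, not single compounds.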
# Tested on: Drosophila S2 cl14 SmoIP sensor cells
# Assay: normalized SmoIP GFP fluorescence (untreated unstimulated = 0%, untreated Hh-stimulated = 100%); higher = more Smo activation sensor fluorescence
# Settings: compound concentration: 15 uM, 24 h
# [1] = stimulation: Hh conditioned medium (+Hh)
# [2] = stimulation: mock conditioned medium (-Hh)
Compound,normalized SmoIP GFP fluorescence [1] [%],normalized SmoIP GFP fluorescence [2] [%]
Cc1ccc(S(=O)(=O)NC(=O)NN2CC3CCCC3C2)cc1 (stereo not given) [gliclazide-diamicron],115,-11.6
NC(=O)[C@@H](CCC(F)(F)F)N(Cc1ccc(-c2ncon2)cc1F)S(=O)(=O)c1ccc(Cl)cc1,145,17.4
Oc1cccc(-c2nc(N3CCOCC3)c3oc4ncccc4c3n2)c1,121,7.92
Cn1cc(-c2ccc3nnc(Sc4ccc5ncccc5c4)n3n2)cn1,124,-1.13
CCN(CC)C(=O)/C(C#N)=C/c1cc(O)c(O)c([N+](=O)[O-])c1 [entacapone],158,12.7
C[C@H](NC(=O)/C(C#N)=C/c1cccc(Br)n1)c1ccccc1,80.7,75.5
CC(C)(CO)c1cc2cc(NC(=O)C3(c4ccc5c(c4)OC(F)(F)O5)CC3)c(F)cc2n1C[C@@H](O)CO,124,9.9
O=C(O)c1cccc(-c2noc(-c3ccccc3F)n2)c1,124,-0.264
O=C(Nc1ccccc1Br)N[C@@H]1CCN(c2ccc(C(F)(F)F)cn2)C1,105,-5.53
CCn1c2ccccc2c2cc(Nc3ccnc(NCCCN4CCOCC4)n3)ccc21 [ehop-016],112,-1.34
Cc1cccc(-c2[nH]c(C(C)(C)C)nc2-c2ccc3nccnc3c2)n1,143,19.8
Cc1cc(Nc2nc(N[C@@H](C)c3ccc(F)cc3)c(C#N)cc2F)n[nH]1,104,8.81
COc1cc2ncnc(Nc3cccc(Cl)c3)c2cc1OC [ag-1478-tyrphostin-ag-1478],169,48.1
CCN(Cc1ccncc1)C(=O)C(CO)c1ccccc1 (stereo not given) [tropicamide],107,-2.48
COC(=O)N1CCN(Cc2cccc(NC(=O)Nc3ccc(C)nc3)c2F)CC1,130,-16.1
Cn1c(=O)n(-c2ccc(C(C)(C)C#N)cc2)c2c3cc(-c4cnc5ccccc5c4)ccc3ncc21,51.3,-22.5
CC(C)C[C@H](NC(=O)[C@H]1O[C@@H]1C(=O)O)C(=O)NCCCCN=C(N)N,224,40.2
C=CC(=O)Nc1cc2c(Nc3ccc(F)c(Cl)c3)ncnc2cc1OCCCN1CCOCC1 [CI-1033(Canertinib)],166,74.3

Compound,normalized SmoIP GFP fluorescence [1] [%],normalized SmoIP GFP fluorescence [2] [%]
C[C@H](Cn1cnc2c(N)ncnc21)OCP(=O)(O)O [Tenofovir],135,4.26
FC(F)c1nc2ccccc2n1-c1nc(N2CCOCC2)nc(N2CCOCC2)n1,45.3,-30.1
CC(=O)Nc1ccc(NC(=S)NC(=O)c2ccc(C(C)(C)C)cc2)cc1 [tenovin-1],154,64.1
O=C1NC(=O)/C(=C/c2ccc(-c3ccc(F)cc3O)o2)S1,135,13.2
COc1ccc(C2CNC(=O)C2)cc1OC1CCCC1 (stereo not given) [Rolipram],141,-2.64
C=C(C)[C@@H]1CC[C@]2(C(=O)O)CC[C@]3(C)[C@H](CC[C@@H]4[C@@]5(C)CC[C@H](O)C(C)(C)[C@@H]5CC[C@]43C)[C@@H]12 [betulinic-acid],128,6.95
O=C(O)/C=C/c1ccc(Cn2ccnc2)cc1 [Ozagrel],120,-12.9
CS(=O)(=O)CCNCc1ccc(-c2ccc3ncnc(Nc4ccc(OCc5cccc(F)c5)c(Cl)c4)c3c2)o1 [Lapatinib-Ditosylate],176,41.9
CC[C@H](Nc1ncnc2[nH]cnc12)c1nc2cccc(F)c2c(=O)n1-c1ccccc1,126,-14.3
COc1cc2c(cc1OC)CN(CCc1ccc(NC(=O)c3cc(OC)c(OC)cc3NC(=O)c3cnc4ccccc4c3)cc1)CC2 [tariquidar],152,34
COc1cccc2cc(-c3nc([C@H]4CC[C@H](C(=O)O)CC4)n4ncnc(N)c34)[nH]c12,25.9,-24.8
CNC(=O)c1ccc(N2C(=S)N(c3ccc(C#N)c(C(F)(F)F)c3)C(=O)C2(C)C)cc1F,133,94.6
CC(C)(C)NC[C@H](O)COc1nsnc1N1CCOCC1 [timolol-maleate],118,-0.0369
CC[C@@]1(O)C(=O)OCc2c1cc1n(c2=O)Cc2cc3c(CN(C)C)c(O)ccc3nc2-1 [Topotecan-Hydrochloride],139,44.8
CCOC(=O)CCNc1cc(N2CCc3ccccc3CC2)nc(-c2ccccn2)n1,76.1,88.2
O=C(c1cc(Cc2n[nH]c(=O)c3ccccc23)ccc1F)N1CCN(C(=O)C2CC2)CC1 [AZD2281(Olaparib)],158,16.8
C[C@@H](c1ncncc1F)[C@](O)(Cn1cncn1)c1ccc(F)cc1F [Voriconazole],145,2.97

# Some values from the list.
# Entry of CC(C)(C)NC[C@H](O)COc1nsnc1N1CCOCC1 [timolol-maleate] under normalized SmoIP GFP fluorescence [1] [%]: 118
# Entry of CC(=O)Nc1ccc(NC(=S)NC(=O)c2ccc(C(C)(C)C)cc2)cc1 [tenovin-1] under normalized SmoIP GFP fluorescence [1] [%]: 154
